The list shows a part of the results. Results with a measured potency or affinity are listed apart. The source made no clear call on entries shown without one.

This test can be described thus: T. cruzi infection blockers in NIH3T3 host cells, beta-gal luminescent readout, 384-well primary screen (AID 2294). As to conditions: T. cruzi beta-gal in NIH3T3, luminescence, 90 h; at 1 µM (top of the series).

In the case of `Cc1cc2cc(CN3C(=O)c4ccccc4C3=O)ccc2n1C`, the activity change, negative = inhibition was found to be 47%.

The values above are taken from PubChem BioAssay AID2294 (Broad Institute, 2010).
